Test results taken from US5770178A, “Metal chelate forming peptides and use thereof” (Nihon Medi-Physics Co., Ltd., priority 1994, dated 1998).

Assay: Radiolabeling rate with Tc-99m at room temperature (HPLC), index of metal chelating ability
Assay type: physicochemical
Settings: room temperature 60 min
[1] = Concentration of Sample 50 μg/ml
[2] = Concentration of Sample 100 μg/ml
[3] = Concentration of Sample 25 μg/ml
[4] = Concentration of Sample 5 μg/ml
[5] = Concentration of Sample 10 μg/ml

Substance | Radiolabeling rate (%) with Tc-99m [1] | Radiolabeling rate (%) with Tc-99m [2] | Radiolabeling rate (%) with Tc-99m [3] | Radiolabeling rate (%) with Tc-99m [4] | Radiolabeling rate (%) with Tc-99m [5]
KPCAREPPTRTFAYWGQG | 51.0 ± 0.13% | 53.6 ± 0.81% |  |  | 
KGCAREPPTRTFAYWGQG | 93.2 ± 1.77% | 98.2 ± 0.11% | 91.9 ± 4.73% |  | 
DYCAREPPTRTFAYWGQG | 98.1 ± 0.45% | 100 ± 0.00% | 90.6 ± 1.95% | 28.7 ± 6.34% | 88.9 ± 2.82%
YKCAREPPTRTFAYWGQG | 97.6% | 98.1% | 96.9% |  | 
YYCAREPPTRTFAYWGQG | 97.9 ± 0.57% | 99.4 ± 0.39% | 93.4 ± 2.51% | 29.2 ± 17.2% | 79.4 ± 1.71%
KYCAREPPTRTFAYWGQG | 96.4 ± 0.32% | 97.8 ± 0.69% | 92.2 ± 1.39% | 39.1 ± 1.59% | 79.6 ± 6.62%
D-KYCAREPPTRTFAYWG-D-QG (D-amino acids; C-terminal D-QG) |  | 99.8 ± 0.11% | 97.7 ± 0.33% | 10.5 ± 0.43% | 
D-KPCAREPPTRTFAYWGQG (D-amino acid) | 67.1 ± 0.06% | 69.1 ± 1.86% |  |  | 
